Results from cells or extracts need not show a direct contact.
Test system: ATF1/CREB (HeLa cell extract CRE-binding proteins) (Homo sapiens)
Assay: EMSA
Conditions: MAb 1, 3, 5 supershift most CRE binding protein, MAb 4 reduced complexes, protein in an extract, protein details: HeLa extract, label: 32P

Chains of the proteins cited; added tags and fusions are not shown. A line that says so, or that is headed by a name, gives the form on record, which may keep a tag or linker.
ATF1/CREB (HeLa cell extract CRE-binding proteins) (Homo sapiens), one chain, as listed by the source, chain 2 of 2: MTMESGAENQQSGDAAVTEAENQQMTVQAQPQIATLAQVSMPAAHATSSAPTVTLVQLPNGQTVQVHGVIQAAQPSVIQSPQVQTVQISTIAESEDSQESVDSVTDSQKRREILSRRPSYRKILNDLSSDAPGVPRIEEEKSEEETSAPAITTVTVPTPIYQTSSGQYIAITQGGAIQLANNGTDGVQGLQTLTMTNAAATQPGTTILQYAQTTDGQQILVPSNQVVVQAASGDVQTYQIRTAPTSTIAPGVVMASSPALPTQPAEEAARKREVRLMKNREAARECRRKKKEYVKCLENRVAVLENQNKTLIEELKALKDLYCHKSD
ATF1/CREB (HeLa cell extract CRE-binding proteins) (Homo sapiens), one chain, as listed by the source, chain 1 of 2: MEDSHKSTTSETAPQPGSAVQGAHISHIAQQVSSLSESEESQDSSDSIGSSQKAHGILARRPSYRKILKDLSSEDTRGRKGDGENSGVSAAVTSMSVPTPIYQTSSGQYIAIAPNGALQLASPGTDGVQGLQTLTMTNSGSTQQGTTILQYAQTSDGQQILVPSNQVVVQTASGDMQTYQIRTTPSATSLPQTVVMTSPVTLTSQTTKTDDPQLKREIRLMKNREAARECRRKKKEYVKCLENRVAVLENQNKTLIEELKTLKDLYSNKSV

“AGAGATTGCCTGACGTCAGAGAGCTAG (double strand) [CRE oligonucleotide]”: binds.

Reference: patent publication US5641486
